# From the supplement of paper PMC12823440, “Inhibitors supercharge kinase turnover through native proteolytic circuits” (Nature, 2025)
# Amino acid sequences for entries named in this document (tags omitted). A change or cut given only in a name is not applied to a line headed by its entry.
# UniProt Q9UM73: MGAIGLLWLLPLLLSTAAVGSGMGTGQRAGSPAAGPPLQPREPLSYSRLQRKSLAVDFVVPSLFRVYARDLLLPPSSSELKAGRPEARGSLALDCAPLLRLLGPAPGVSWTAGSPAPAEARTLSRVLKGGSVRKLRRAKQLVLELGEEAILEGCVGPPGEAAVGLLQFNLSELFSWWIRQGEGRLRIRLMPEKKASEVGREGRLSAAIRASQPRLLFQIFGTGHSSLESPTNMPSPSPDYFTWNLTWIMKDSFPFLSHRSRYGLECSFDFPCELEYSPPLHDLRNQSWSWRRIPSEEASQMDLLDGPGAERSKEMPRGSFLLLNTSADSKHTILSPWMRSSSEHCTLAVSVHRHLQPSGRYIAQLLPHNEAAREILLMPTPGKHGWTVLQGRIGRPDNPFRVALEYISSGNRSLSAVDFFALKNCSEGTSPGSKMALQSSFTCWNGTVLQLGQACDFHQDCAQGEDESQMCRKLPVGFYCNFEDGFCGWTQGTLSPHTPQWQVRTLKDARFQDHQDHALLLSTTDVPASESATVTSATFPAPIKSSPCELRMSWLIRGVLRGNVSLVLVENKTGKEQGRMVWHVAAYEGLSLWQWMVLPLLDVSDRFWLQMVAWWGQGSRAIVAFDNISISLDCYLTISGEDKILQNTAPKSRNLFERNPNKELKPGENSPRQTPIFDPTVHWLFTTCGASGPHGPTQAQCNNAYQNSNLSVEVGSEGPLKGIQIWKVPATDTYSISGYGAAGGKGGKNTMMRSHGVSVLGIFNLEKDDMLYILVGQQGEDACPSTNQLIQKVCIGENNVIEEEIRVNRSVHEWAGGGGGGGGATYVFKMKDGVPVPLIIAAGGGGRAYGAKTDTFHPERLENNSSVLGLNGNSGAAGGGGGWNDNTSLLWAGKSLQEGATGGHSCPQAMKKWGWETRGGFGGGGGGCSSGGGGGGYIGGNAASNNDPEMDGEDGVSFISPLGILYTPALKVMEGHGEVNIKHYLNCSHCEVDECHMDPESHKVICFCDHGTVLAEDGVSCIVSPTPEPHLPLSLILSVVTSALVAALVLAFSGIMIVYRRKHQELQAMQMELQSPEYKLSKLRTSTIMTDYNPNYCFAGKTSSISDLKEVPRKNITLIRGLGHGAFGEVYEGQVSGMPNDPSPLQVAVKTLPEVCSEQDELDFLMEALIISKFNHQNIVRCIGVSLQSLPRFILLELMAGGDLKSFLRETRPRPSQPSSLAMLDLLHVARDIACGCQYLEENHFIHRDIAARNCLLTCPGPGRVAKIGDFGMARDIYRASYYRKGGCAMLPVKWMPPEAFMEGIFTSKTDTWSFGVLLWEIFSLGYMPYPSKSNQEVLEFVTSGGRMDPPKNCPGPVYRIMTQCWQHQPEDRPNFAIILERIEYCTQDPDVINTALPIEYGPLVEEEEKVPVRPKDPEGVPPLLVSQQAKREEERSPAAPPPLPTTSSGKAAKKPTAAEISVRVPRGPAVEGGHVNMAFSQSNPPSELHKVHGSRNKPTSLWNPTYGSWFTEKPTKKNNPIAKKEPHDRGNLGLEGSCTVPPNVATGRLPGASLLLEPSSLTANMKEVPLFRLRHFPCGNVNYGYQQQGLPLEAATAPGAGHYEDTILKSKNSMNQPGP
# UniProt P10398: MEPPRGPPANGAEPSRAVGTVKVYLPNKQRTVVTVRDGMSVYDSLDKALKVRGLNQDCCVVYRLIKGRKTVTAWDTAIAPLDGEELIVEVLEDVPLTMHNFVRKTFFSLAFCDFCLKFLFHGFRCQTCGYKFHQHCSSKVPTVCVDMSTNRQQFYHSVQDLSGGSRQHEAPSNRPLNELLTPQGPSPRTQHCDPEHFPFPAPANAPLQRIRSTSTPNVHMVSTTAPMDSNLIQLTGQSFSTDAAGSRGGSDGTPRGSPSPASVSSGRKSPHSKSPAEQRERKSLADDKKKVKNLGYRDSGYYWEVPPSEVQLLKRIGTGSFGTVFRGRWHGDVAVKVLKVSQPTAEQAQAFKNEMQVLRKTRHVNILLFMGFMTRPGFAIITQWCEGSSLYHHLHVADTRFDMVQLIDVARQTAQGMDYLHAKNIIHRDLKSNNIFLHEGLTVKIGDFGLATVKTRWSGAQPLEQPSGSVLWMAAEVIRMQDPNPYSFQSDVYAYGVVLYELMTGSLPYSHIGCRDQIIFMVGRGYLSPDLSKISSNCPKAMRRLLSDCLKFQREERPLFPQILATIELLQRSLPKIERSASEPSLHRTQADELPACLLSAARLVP
# UniProt O14965: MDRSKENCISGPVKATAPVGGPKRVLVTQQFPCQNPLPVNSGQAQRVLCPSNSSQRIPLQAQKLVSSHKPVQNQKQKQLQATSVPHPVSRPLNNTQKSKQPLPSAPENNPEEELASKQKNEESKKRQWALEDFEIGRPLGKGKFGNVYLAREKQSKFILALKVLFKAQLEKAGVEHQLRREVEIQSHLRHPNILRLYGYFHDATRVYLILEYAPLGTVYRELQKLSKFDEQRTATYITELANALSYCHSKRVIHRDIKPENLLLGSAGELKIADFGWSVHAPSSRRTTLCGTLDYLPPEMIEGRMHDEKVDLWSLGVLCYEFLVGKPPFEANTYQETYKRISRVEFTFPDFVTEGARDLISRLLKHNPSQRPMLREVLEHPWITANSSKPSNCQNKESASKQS
# UniProt Q9UQB9: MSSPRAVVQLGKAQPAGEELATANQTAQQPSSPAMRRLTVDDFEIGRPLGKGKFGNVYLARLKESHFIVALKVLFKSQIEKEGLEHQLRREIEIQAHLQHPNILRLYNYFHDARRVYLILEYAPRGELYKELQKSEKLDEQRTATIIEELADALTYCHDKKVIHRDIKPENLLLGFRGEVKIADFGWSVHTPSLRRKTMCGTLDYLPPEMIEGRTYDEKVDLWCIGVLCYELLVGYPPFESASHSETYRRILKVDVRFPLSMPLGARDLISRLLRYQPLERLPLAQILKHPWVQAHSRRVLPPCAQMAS
# UniProt P51451: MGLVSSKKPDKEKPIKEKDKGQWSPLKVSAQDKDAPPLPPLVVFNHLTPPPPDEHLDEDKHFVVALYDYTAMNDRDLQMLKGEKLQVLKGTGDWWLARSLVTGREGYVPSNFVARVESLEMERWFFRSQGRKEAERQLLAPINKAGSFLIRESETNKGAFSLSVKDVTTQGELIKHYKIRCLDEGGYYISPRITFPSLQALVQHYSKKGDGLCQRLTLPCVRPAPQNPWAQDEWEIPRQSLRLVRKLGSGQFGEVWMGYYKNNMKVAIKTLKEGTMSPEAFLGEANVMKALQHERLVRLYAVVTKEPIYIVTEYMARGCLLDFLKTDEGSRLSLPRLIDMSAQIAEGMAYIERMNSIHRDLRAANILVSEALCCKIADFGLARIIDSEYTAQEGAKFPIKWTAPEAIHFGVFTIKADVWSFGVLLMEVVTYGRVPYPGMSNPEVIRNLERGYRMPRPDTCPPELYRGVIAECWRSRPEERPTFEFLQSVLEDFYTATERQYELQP
# UniProt P51813: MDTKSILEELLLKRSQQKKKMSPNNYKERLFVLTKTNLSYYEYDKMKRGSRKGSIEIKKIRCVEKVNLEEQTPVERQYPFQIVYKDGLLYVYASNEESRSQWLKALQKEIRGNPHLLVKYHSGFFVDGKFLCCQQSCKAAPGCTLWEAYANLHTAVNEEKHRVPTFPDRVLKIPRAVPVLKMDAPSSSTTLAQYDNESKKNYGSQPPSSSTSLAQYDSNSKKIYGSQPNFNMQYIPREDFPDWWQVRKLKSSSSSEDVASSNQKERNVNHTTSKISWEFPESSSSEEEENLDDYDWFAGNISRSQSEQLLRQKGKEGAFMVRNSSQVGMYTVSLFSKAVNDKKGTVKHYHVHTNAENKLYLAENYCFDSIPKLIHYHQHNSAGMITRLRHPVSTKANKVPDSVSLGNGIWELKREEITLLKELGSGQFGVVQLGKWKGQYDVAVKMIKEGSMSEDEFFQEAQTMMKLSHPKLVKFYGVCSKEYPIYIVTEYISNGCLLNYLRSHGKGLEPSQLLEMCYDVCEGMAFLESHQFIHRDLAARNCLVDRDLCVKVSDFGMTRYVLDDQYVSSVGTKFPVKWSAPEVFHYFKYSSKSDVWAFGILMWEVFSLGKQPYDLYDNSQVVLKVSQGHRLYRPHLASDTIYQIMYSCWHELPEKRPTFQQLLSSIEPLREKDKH
# UniProt Q9UQM7, whole entry: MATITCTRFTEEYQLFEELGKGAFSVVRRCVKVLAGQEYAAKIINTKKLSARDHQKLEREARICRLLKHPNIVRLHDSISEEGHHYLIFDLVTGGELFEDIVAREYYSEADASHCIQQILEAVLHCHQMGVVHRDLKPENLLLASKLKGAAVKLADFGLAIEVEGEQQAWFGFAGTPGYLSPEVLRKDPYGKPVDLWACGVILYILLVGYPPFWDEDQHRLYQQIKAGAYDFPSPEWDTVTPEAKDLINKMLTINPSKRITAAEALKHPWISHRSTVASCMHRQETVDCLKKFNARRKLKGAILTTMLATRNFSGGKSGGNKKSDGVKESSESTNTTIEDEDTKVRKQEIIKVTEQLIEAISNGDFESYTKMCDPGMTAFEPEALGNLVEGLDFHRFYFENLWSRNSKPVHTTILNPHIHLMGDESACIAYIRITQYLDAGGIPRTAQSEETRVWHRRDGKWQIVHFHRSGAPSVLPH
# UniProt Q15131: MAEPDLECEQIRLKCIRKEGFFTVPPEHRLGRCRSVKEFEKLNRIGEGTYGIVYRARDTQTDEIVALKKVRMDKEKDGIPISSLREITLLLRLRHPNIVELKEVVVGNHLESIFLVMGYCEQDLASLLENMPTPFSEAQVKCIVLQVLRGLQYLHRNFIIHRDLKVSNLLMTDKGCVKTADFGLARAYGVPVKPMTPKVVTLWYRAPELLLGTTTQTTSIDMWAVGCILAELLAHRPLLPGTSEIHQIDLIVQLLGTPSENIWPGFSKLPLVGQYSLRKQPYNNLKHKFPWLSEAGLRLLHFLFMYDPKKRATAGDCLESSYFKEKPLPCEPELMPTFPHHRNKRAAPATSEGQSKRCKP
# UniProt Q00526: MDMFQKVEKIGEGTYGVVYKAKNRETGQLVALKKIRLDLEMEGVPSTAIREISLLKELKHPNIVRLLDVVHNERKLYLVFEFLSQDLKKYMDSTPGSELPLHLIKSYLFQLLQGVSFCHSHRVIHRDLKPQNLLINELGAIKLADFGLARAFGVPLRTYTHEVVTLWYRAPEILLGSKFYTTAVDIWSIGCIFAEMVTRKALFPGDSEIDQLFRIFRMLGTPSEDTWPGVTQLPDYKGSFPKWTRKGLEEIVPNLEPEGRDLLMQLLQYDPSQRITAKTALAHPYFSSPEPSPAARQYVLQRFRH
# UniProt Q00535, whole entry, looked up: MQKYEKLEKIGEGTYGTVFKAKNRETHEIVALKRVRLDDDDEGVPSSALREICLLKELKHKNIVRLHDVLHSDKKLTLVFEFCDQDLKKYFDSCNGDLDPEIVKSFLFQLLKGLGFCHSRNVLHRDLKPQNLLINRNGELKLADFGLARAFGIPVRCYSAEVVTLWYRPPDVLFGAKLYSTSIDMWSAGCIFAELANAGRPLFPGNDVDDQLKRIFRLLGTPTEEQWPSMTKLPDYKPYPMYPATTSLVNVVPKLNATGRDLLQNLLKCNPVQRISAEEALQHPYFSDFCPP
# UniProt O96017, whole entry: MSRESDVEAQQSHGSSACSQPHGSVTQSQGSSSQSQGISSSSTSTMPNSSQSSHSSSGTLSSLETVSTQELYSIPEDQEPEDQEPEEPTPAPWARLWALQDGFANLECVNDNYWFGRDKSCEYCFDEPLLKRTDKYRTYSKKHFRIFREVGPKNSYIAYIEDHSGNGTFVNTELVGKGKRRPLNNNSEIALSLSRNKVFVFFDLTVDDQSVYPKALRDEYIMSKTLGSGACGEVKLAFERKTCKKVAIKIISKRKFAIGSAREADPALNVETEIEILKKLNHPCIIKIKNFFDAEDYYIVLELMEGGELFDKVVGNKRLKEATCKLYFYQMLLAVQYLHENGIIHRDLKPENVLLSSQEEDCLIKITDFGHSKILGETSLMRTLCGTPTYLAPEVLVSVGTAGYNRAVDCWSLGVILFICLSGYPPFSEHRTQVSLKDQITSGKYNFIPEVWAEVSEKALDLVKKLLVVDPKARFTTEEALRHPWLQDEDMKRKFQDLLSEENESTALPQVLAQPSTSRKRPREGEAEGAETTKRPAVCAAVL
# UniProt P41240: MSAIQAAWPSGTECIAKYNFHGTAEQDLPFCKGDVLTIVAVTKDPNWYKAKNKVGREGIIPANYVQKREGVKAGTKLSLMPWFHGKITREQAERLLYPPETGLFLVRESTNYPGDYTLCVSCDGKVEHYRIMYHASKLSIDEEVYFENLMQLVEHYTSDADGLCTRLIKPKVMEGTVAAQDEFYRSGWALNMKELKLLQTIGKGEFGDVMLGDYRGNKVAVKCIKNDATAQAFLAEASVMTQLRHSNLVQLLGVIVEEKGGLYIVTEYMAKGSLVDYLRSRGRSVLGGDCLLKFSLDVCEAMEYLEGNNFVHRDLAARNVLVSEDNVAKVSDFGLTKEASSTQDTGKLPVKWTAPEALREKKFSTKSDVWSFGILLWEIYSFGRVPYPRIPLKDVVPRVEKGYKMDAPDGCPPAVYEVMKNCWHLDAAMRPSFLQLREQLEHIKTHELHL
# Some of the results follow. The calls rarely recur for the same compound in another form.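 In K562 cells expressing nanoluciferase-fused kinases, luminescence was recorded at 4 h intervals between 2 and 18 h, normalized as percent of control with DMSO at 100% and a positive control at 0%. A significant (2 sigma) signal drop marks a time point as decreased. The authors' rule for a hit is not shown and takes in more than the number of time points.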
# Experiments:
# Assay in all cases: number of time points (of 5) at which kinase-Nluc abundance scored as decreased, DMSO-normalised (count); higher = more persistent destabilization
# Details in all cases: K562; 2-18 h
# ALK = ALK (UniProt Q9UM73)
# ARAF = ARAF (UniProt P10398)
# AURKA = AURKA (UniProt O14965)
# AURKB = AURKB (UniProt Q96GD4)
# AURKC = AURKC (UniProt Q9UQB9)
# BLK = BLK (UniProt P51451)
# BMX = BMX (UniProt P51813)
# BRAF = BRAF (UniProt P15056)
# BRAF_V600E = system: BRAF_V600E
# BTK = BTK (UniProt Q06187)
# CAMK2A = CAMK2A (UniProt Q9UQM7)
# CAMK2G = CAMK2G (UniProt Q13555)
# CDK10 = CDK10 (UniProt Q15131)
# CDK2 = CDK2 (UniProt P24941)
# CDK3 = CDK3 (UniProt Q00526)
# CDK5 = CDK5 (UniProt Q00535)
# CDK6 = CDK6 (UniProt Q00534)
# CHEK2 = CHEK2 (UniProt O96017)
# CSF1R = CSF1R (UniProt P07333)
# CSK = CSK (UniProt P41240)
SMILES,number of time points (ALK),number of time points (ARAF),number of time points (AURKA),number of time points (AURKB),number of time points (AURKC),number of time points (BLK),number of time points (BMX),number of time points (BRAF),number of time points (BRAF_V600E),number of time points (BTK),number of time points (CAMK2A),number of time points (CAMK2G),number of time points (CDK10),number of time points (CDK2),number of time points (CDK3),number of time points (CDK5),number of time points (CDK6),number of time points (CHEK2),number of time points (CSF1R),number of time points (CSK)
COCCOc1ccc(-c2cn(-c3ccccc3)c3nc[nH]c(=O)c23)cc1 (10 µM),0,0,0,0,0,0,0,0,0,0,0,0,0,0,0,0,0,0,0,0
OC(COc1ccc(C(F)(F)F)cc1)CN(Cc1ccccc1)Cc1ccccc1 (stereo not given) (2.5 µM),0,0,0,0,0,0,0,0,0,0,0,0,0,0,0,0,0,0,0,0
Cc1ccc(-c2c(C(=O)CCl)n(CCCO)c3ncnc(N)c23)cc1 (10 µM),3,0,4,5,0,4,4,0,1,0,0,2,0,0,0,0,2,4,5,0
CS(=O)(=O)c1ccc(-c2noc(C(F)(F)F)c2-c2ccccc2)cc1 (10 µM),0,0,0,0,0,0,0,0,0,0,0,0,0,0,0,0,0,0,0,0
OC[C@H]1O[C@@H](Oc2cc3c(O)cc(O)cc3[o+]c2-c2cc(O)c(O)c(O)c2)[C@H](O)[C@@H](O)[C@@H]1O [Delphinidin 3-glucoside (chloride)] (10 µM),0,0,0,0,0,0,0,0,0,0,0,0,0,0,0,0,0,0,0,0
Nc1nccc(Oc2ccc(NC(=O)c3cn(COP(=O)(O)O)cc(-c4ccc(F)cc4)c3=O)cc2F)c1Cl (10 µM),0,0,0,0,0,2,1,0,1,0,0,0,0,0,0,0,0,0,0,0
N#Cc1cccc(-c2c[nH]c3ncnc(N4CCOCC4)c23)c1 (10 µM),0,0,0,0,0,0,0,0,0,0,0,0,0,0,0,0,0,0,0,0
CC/C=C\C/C=C\C/C=C\CCCCCCCC(=O)O [α-Linolenic acid] (10 µM),0,0,0,0,0,0,0,0,0,0,0,0,0,0,0,0,0,0,0,0
Cc1csc(-c2nnc(Nc3ccc(Oc4ncccc4-c4ccnc(N)n4)cc3)c3ccccc23)c1 (2.5 µM),0,0,0,0,0,0,0,0,0,0,0,0,0,0,0,0,0,0,0,0
CCOc1ccc(C(=O)Nc2ncc([N+](=O)[O-])s2)cc1 (10 µM),0,0,0,0,0,0,3,0,0,0,0,0,0,0,0,0,0,0,0,0
Cc1cc2cc(Nc3ccnc(Nc4ccc5[nH]c(C)cc5c4)n3)ccc2[nH]1 (2.5 µM),0,0,0,0,0,2,0,0,0,0,0,0,0,0,0,0,0,0,0,0
COc1ccc([C@H]2c3[nH]c4ccc(Cl)cc4c3CCN2C(=O)Oc2ccc(Cl)cc2)cc1 (2.5 µM),0,0,0,0,0,1,0,0,0,0,0,0,0,0,0,0,0,0,0,0
